Source: patent US4876243A, “Vasopressin compounds” (Smithkline Beckman Corporation, priority 1987, dated 1989)
At least one peptide structure holds a part that was inferred or is arguable (an end, a ring closure or a residue). *1 amine or outer side, *2 acyl side, *3 side chain or, on linkers, in order; H or OH if unused. Where a SMILES comes first, the peptide text is derived from it. Bridges are numbered along the chain shown (N, C = ends). [ ]: non-standard residue; d: D form. X1 = O=C(CC1(S[*:2])CCCCC1)[*:1]; Aib = CC(C)(N)C(=O)O

Amino acid sequences for entries named in this document (tags omitted).
UniProt Q00788, whole entry: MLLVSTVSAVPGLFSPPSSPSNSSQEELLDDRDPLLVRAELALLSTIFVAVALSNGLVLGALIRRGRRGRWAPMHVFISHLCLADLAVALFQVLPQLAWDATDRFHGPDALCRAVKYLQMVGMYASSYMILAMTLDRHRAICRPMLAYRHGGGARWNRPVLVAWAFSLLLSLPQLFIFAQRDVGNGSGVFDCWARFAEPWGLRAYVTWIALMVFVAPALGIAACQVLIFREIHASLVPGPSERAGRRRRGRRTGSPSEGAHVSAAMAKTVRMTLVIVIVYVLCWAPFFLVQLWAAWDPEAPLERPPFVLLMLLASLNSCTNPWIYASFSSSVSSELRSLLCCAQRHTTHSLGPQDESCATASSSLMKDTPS

biological target: T1, V2-vasopressin receptors (Rattus norvegicus, UniProt Q00788); test: in vivo diuretic activity in the hydropenic rat
T1 construct: in vivo diuretic activity in the hydropenic rat; from tissue; host or cells: whole animal (hydropenic rat)

In order of rising “Rat V2 ED300” value:
1. CCOc1ccc(C[C@H]2NC(=O)CC3(CCCCC3)SSC[C@@H](C(=O)NC(C)(C)C(=O)N[C@@H](CCCNC(=N)N)C(=O)NCC(N)=O)NC(=O)[C@H](CC(N)=O)NC(=O)[C@H](C(C)C)NC(=O)[C@H](Cc3ccccc3)NC2=O)cc1 [A, [1-(β,β-cyclopentamethylene-β-mercaptopropionic acid)-2-(O-ethyl-D-tyrosine)-4-valine-7-α-aminoisobutyric acid-8-arginine]vasopressin] ([dY](Et)FVNC[Aib]RG-NH2; linker N-5 via X1)  0.0227 mg/kg
2. CCOc1ccc(C[C@H]2NC(=O)CC3(CCCCC3)SSC[C@@H](C(=O)N3CCC[C@H]3C(=O)N[C@@H](CCCNC(=N)N)C(N)=O)NC(=O)[C@H](CC(N)=O)NC(=O)C(C)(C)NC(=O)[C@H](Cc3ccccc3)NC2=O)cc1 [B, [1-(β,β-cyclopentamethylene-β-mercaptopropionic acid)-2-(O-ethyl-D-tyrosine)-4-α-aminoisobutyric acid-8-arginine-9-desglycine]vasopressin] ([dY](Et)F[Aib]NCPR-NH2; linker N-5 via X1)  0.0399 mg/kg
3. CCOc1ccc(C[C@H]2NC(=O)CC3(CCCCC3)SSC[C@@H](C(=O)NC(C)(C)C(=O)N[C@@H](CCCNC(=N)N)C(N)=O)NC(=O)[C@H](CC(N)=O)NC(=O)[C@H](C(C)C)NC(=O)[C@H](Cc3ccccc3)NC2=O)cc1 [E, [1-(β,β-cyclopentamethylene-β-mercaptopropionic acid)-2-(O-ethyl-D-tyrosine)-4-valine-7-α-aminoisobutyric acid-8-arginine-9-desglycine]vasopressin] ([dY](Et)FVNC[Aib]R-NH2; linker N-5 via X1)  0.0728 mg/kg
